{"source": "paper doi:10.1101/2022.09.15.508097", "binders": {"B1": {"name": "Halo-CENP-B^133–599 (domain or fragment, UniProt P07199 133-599)", "chain": "VSCSGVARARARNAAPRTPAAPASPAAVPSEGSGGSTTGWRAREEQPPSVAEGYASQDVFSATETSLWYDFLPDQAAGLCGGDGRPRQATQRLSVLLCANADGSEKLPPLVAGKSAKPRAGQAGLPCDYTANSKGGVTTQALAKYLKALDTRMAAESRRVLLLAGRLAAQSLDTSGLRHVQLAFFPPGTVHPLERGVVQQVKGHYRQAMLLKAMAALEGQDPSGLQLGLTEALHFVAAAWQAVEPSDIAACFREAGFGGGPNATITTSLKSEGEEEEEEEEEEEEEEGEGEEEEEEGEEEEEEGGEGEELGEEEEVEEEGDVDSDEEEEEDEESSSEGLEAEDWAQGVVEAGGSFGAYGAQEEAQCPTLHFLEGGEDSDSDSEEEDDEEEDDEDEDDDDDEEDGDEVPVPSFGEAMAYFAMVKRYLTSFPIDDRVQSHILHLEHDLVHVTRKNHARQAGVRGLGHQS", "modifications": "Halo Tag TMR ligand on the Halo tag"}, "B2": {"name": "ZNF518B^WT recruited by TetR:EYFP:CENP-B^133–599 (Fig. S6B) (protein, UniProt Q9C0D4 1-1074)", "chain": "MKDIGQQLYTTHLNGGHNSLTMSPKQPDANGAPRPNRQEAQTLLYQGSEAEAAMMTIATCAKCKSVHKISLQDLQKGTGKDGMYVCFQCSLGAAPPNFHFVSNNSSATHVGNKTENFSSSVNSKFKVRNFKPGKYYCDKCRFSTKDPLQYKKHTLQHEEIKFICSHCSYISYTKGEFQRHLVKHTGIFPYQCEYCDYGAIRNDYIVKHTKRVHERAGAKRPVKAVAKLEPKRTGTSKQNPELLKASNPRTTFQNKWSDQLSGFSLHANKDKMHNIMLLPEPKEYQKDVVCIPNKMTLSEPNEVNLFENKNVEVEVLSPAKEPVQPGMPLTVVAPAELVVPANCLAQLIDVKVVNGTQQLVLKLFPLEENNCLEAGRDNGGNSERMVKEKGSNEQEKVLSAEKTKSLTVDGNVGKLVGIDSFQPSVQKQLKNVKWVRSYDFIMPNSSVHNNGKSFINSETIEDFQKKNNLYPHRTAFPSVALKGHSLASVFKNSVLRSLGAASNPFPYKAAVCFAESGRNLHSSSQQLLPFAASPATCSFSGEKGLLPVSENDLESTSKVNIPVKVVSSNRKQEDNQTEEHKAVSTVGQISSQHKSEYLHINITGEDRSQQPGDKPLELKNSERTNNTNDGPVISSVFSLSSGSENVPEGIKWNSSTSKIKSIELLRRKIAQLIESCGKPSSLASNSAHRRSVGQASKGTSKATSEGIQEINVSLTGLGHSTGTLQKPPNDGGITGNRQLTHQQIYPHFADGSNRKTKSRVARKAHVATPVLIPKGAVLRVLNSSENAHIIEATCEAPVSIPCSERQLIKPVPFCPVRQADSDLQPLRSERGPIDMSPNIETPLRPKLRKESAVCSTIHRKTGLLYGQQGSSELNKQGRLLSRSLSISRNKTKQVHLSRKKNKIQAEPSRCLKDPSIFQVARQLRLIAAKPDQLIKCPRRNQPVIVLNHPDVDSPEVTNVMKVINKYKGNVLKVVLSERTRCQLGIRRHHVRLTYQNAEEASQIKRQMMLKMKLKKVHKNNYQVVDSLPDDSSQCVFKCWFCGRLYEDQEEWMSHGQRHLIEATRDWDVLSSKGK"}}, "test_in_all_cases": "fluorescence microscopy-based interaction-trap", "key": {"[1]": {"biological_target": "TetR-EYFP-ZNF518B^344–987 (human) (UniProt Q9C0D4)"}, "[2]": {"biological_target": "TetR-EYFP-ZNF518B^344–1074 (human) (UniProt Q9C0D4)"}, "[3]": {"biological_target": "TetR-EYFP-ZNF518B^555–1074 (human) (UniProt Q9C0D4)"}, "[4]": {"biological_target": "TetR-EYFP-ZNF518B^555–877 (human) (UniProt Q9C0D4)"}, "[5]": {"biological_target": "TetR-EYFP-ZNF518B^344–628 (human) (UniProt Q9C0D4)"}, "[6]": {"biological_target": "TetR-EYFP-ZNF518B^770–877 (human) (UniProt Q9C0D4)"}, "[7]": {"biological_target": "TetR-EYFP-ZNF518B^344–877 (human) (UniProt Q9C0D4)"}, "[8]": {"biological_target": "TetR-EYFP-ZNF518B^878–987 (human) (UniProt Q9C0D4)"}, "[9]": {"biological_target": "TetR-EYFP-ZNF518B^878–1074 (human) (UniProt Q9C0D4)"}, "[10]": {"biological_target": "TetR-EYFP-ZNF518B^1–398 (human) (UniProt Q9C0D4)"}, "[11]": {"biological_target": "TetR-EYFP-ZNF518B^770–987 (human) (UniProt Q9C0D4)"}, "[12]": {"biological_target": "TetR-EYFP-ZNF518B^1–628 (human) (UniProt Q9C0D4)"}, "[13]": {"biological_target": "T1, TetR:EYFP:CENP-B^133–599 (human) (UniProt P07199)", "T1 sequence": "B1 chain"}}, "note": "No constants are given. Whether binding was seen depends on the method and setting. Some entries that bind do so weakly or less than the wild type. For some of these results: Tags and fused reporters may be left off the sequences shown."}
{"binder": "B1", "values": [{"measurement": "binding", "setting": "[1]", "result": "binds"}, {"measurement": "binding", "setting": "[2]", "result": "binds"}, {"measurement": "binding", "setting": "[3]", "result": "binds"}, {"measurement": "binding", "setting": "[4]", "result": "binds"}, {"measurement": "binding", "setting": "[5]", "result": "binds weakly"}, {"measurement": "binding", "setting": "[6]", "result": "binds"}, {"measurement": "binding", "setting": "[7]", "result": "binds"}, {"measurement": "binding", "setting": "[8]", "result": "no binding"}, {"measurement": "binding", "setting": "[9]", "result": "no binding"}, {"measurement": "binding", "setting": "[10]", "result": "binds weakly"}, {"measurement": "binding", "setting": "[11]", "result": "binds"}, {"measurement": "binding", "setting": "[12]", "result": "binds weakly"}]}
{"binder": "B2", "values": [{"measurement": "binding", "setting": "[13]", "result": "binds"}]}
